Values of other authors, collected in patent US20200009168A1, “MICROBIOME REGULATORS AND RELATED USES THEREOF” (KALEIDO BIOSCIENCES, INC., priority 2015, published 2020).

details: sucrose as reference; cited from earlier work

Structure (SMILES)	relative sweetness compared to sucrose, in words
OC[C@H]1O[C@H](O[C@H]2[C@H](O)[C@@H](O)[C@H](O)O[C@@H]2CO)[C@H](O)[C@@H](O)[C@@H]1O [D (+) maltose]	roughly as sweet or, in many cases, less sweet than sucrose
O=C(CO)[C@@H](O)[C@H](O)[C@H](O)CO [D-fructose]	roughly as sweet or, in many cases, less sweet than sucrose
O=C[C@H](O)[C@@H](O)[C@@H](O)[C@H](O)CO [D-galactose]	roughly as sweet or, in many cases, less sweet than sucrose
OC[C@@H](O)[C@@H](O)[C@H](O)[C@@H](O)CO [D-sorbitol]	roughly as sweet or, in many cases, less sweet than sucrose
O=C[C@H](O)[C@@H](O)[C@H](O)CO [D-xylose]	roughly as sweet or, in many cases, less sweet than sucrose
OC[C@H]1O[C@@H](O[C@H]2[C@H](O)[C@@H](O)C(O)O[C@@H]2CO)[C@H](O)[C@@H](O)[C@H]1O (stereo partly drawn) [lactose]	roughly as sweet or, in many cases, less sweet than sucrose

Some compounds share one wording; it may come from a single statement.
